Results reported in paper PMC11786349.
No constants are given. Whether binding was seen depends on the method and setting. Binding seen in cells or lysates may run through a third protein. Some entries that bind do so weakly or less than the wild type. Each block holds one substance with its values, some of them ahead of it.

Key:
GST-TRPV1 (1-390) = GST-TRPV1 (1-390) (UniProt O35433); assay: pull-down; GST-tagged truncated TRPV1 from E. coli purified on GST magnetic beads, combined in vitro with protein solutions derived from cells; SDS-PAGE and western blot; only the target purified
[1] = molecular target: transient receptor potential vanilloid 1 (TRPV1), endogenous in DRG neurons (rat (endogenous in DRG neurons)) (UniProt O35433); assay: co-IP; endogenous proteins in DRG neurons; RIPA lysate, antibody on magnetic beads, western blot
[2] = molecular target: TRPV1 T406A, expressed from plasmid (UniProt O35433); assay: co-IP; exogenous (transfected) proteins in 293T cells; RIPA lysate, antibody on magnetic beads, western blot
[3] = molecular target: TRPV1 wild type, expressed from plasmid in 293T cells (UniProt O35433); assay: as above

binding (GST-TRPV1 (1-390)): binds
Substance: CDK5 in the protein solution derived from cells used for the GST pulldown (from UniProt Q03114 1-292) (enzyme)

binding [1]: binds
Substance: cyclin-dependent kinase 5 (CDK5), endogenous in DRG neurons (from UniProt Q03114 1-292) (enzyme)

binding [2]: binds | binding [3]: binds
Substance: CDK5, expressed from plasmid in 293T cells (from UniProt Q03114 1-292) (enzyme)
